From article PMC2873905
Results are given in words; binding and its absence hold for the method and conditions named. Binding seen in cells or lysates may run through a third protein. Binding calls can cover weak binding; strength is not graded here.

Biological target: GST-fused intact C-terminal frog usherin (analogous to mouse usherin 5053-5193 aa) (frog)
Assay: pull-down; GST-fused usherin fragments expressed in E. coli, incubated with mouse retinal lysate and glutathione sepharose beads for 2 hours at 4°C; washed three times with lysis buffer (50 mM Tris-HCl pH8.0, 150 mM NaCl, 0.5% TritonX-100, 5 mM EDTA, 1 mM DTT); whirlin detected by blot

binding: binds
B1: endogenous whirlin from mouse retinal lysate (protein, UniProt Q80VW5-3 1-907)
chain: MNAQLDGLSVSSSSTGSLGSAAAAAGGGGGAGLRLLSANVRQLHQALTALLSEPEREQFTHCLNAYHARRNVFDLVRTLRVLLDSPVKRRLLPMLRLVIPRSDQLLFDQYTAEGLYLPATTPYRQPAWAAPDGAGPGEVRLVSLRRAKAHEGLGFSIRGGSEHGVGIYVSLVEPGSLAEKEGLRVGDQILRVNDKSLARVTHAEAVKALKGSKKLVLSVYSAGRIPGGYVTNHIYTWVDPQGRSTSPPSSLPQPHGSTLRQREDDRRSTLHLLQSGDEKKVNLVLGDGRSLGLTIRGGAEYGLGIYITGVDPGSEAESSGLKVGDQILEVNGRSFLNILHDEAVKLLKSSRHLILTVKDVGRLPHARTTVDQTKWIASSRIGESVANSAGFPGDHTEEGTSKPGFYKGPAGSQVTLSSLGNQTRALLDDQARHLLTEQERATMMYYLAQYRGGTISVEAMVMALFELLNTHAKFSLLSEVRSIISPQDLDRFDHLVLRREIESMKARQPPGPGVGDTYSMVSYSDTGSSTGSHGTSTTVSSARNTLDLEGTGETTQGSTNALPDVSVDDVKSPSEDLPGIKPPPPPPPLAQGHDRLLGQPRKPGREDPAPLSSAAHSGIVFSAPRNRSPPPGTAPTPGPSSAQDSPSSPIYASISHANPSSRKPLDTHLALVNQHPIGPFPRVQSPPHLKSPPAETPGAGACLPPPSPSEHPDAVGANQHFVLVEVHRPDSEPDVNEVRALPQTRTASTLSQLSDSGQTLSEDSGVDAGETEASTSGRGRQTASAKNKNGKEQPRTERTAEGANKPPGLLEPTSTLVRVRKSAATLGIAIEGGANTRQPLPRIVTIQRGGSAHNCGQLKVGHVILEVNGQTLRGKEHKEAARIIAEAFKTKERDYIDFLVTEFNVML
